Data published in article PMC9241232.
No constants are given. Whether binding was seen depends on the method and setting. Binding seen in cells or lysates may run through a third protein. Some entries that bind do so weakly or less than the wild type.

Amino acid sequences for entries named in this document (tags omitted).
UniProt P63172: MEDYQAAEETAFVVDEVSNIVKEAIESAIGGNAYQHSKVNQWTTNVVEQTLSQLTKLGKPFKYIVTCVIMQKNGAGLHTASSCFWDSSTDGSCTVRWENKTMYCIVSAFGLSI

Legend:
[1] = molecular target: His-tagged HrpA-M2 (Neisseria meningitidis strain MC58) (UniProt C0KXI4); test: pull-down; purified His-tagged HrpA-M2 or HrpA-M3 bound to Ni-NTA resin, incubated 2 h at 4 °C with HeLa cell lysate over-expressing Myc-DYNLT1; washes with NaH2PO4 50 mM, NaCl 300 mM, imidazole 20 mM, pH 8.0; elution with 250 mM imidazole; western blot with anti-polyHis and anti-Myc; only the target purified
[2] = molecular target: His-tagged HrpA-M3 (Neisseria meningitidis strain MC58) (UniProt C0KXI4); test: as above

**Q.** “Myc-tagged DYNLT1 (from UniProt P63172 1-113)” was tested. Which binding [1] did it give?
**A.** no binding

**Q.** What about the binding [2] of the same substance?
**A.** binds
